Differences between knockout arms are mostly noise.
Tested on: HCC-38
Experiment: relative cell number vs DMSO control (72 h) (% of DMSO); higher = less growth inhibition (more cells)
Experimental: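 QMAP-Seq: a pool of 5 breast cancer cell lines (ZR-75-1, SKBR3, HCC-38, MDA-MB-231, BT-20), each carrying 12 doxycycline-inducible Cas9 sgRNA perturbations (11 knockouts plus non-targeting sgNT), was treated with compounds for 72 h at four 10-fold doses (10 nM-10 uM or 1 nM-1 uM range). Barcodes were amplified and sequenced, and cell number was interpolated from 293T spike-in standard curves. The result is expressed as % of the median of DMSO wells. Two biological replicates.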

CCCS(=O)(=O)Nc1ccc(F)c(C(=O)c2c[nH]c3ncc(Cl)cc23)c1F [PLX4720]
Conditions	relative cell number
sgRNA knockout: sgATF3, 10 nM	93.2
sgRNA knockout: sgATF3, 100 nM	121
sgRNA knockout: sgATF3, 1000 nM	106
sgRNA knockout: sgATF3, 10000 nM	102
sgRNA knockout: sgATF4, 10 nM	96.5
sgRNA knockout: sgATF4, 100 nM	119
sgRNA knockout: sgATF4, 1000 nM	111
sgRNA knockout: sgATF4, 10000 nM	97.9
sgRNA knockout: sgATF6, 10 nM	99.3
sgRNA knockout: sgATF6, 100 nM	93.2
sgRNA knockout: sgATF6, 1000 nM	122
sgRNA knockout: sgATF6, 10000 nM	117
sgRNA knockout: sgATG7, 10 nM	91.8
sgRNA knockout: sgATG7, 100 nM	117
sgRNA knockout: sgATG7, 1000 nM	114
sgRNA knockout: sgATG7, 10000 nM	95.4
sgRNA knockout: sgERN1, 10 nM	97.8
sgRNA knockout: sgERN1, 100 nM	109
sgRNA knockout: sgERN1, 1000 nM	113
sgRNA knockout: sgERN1, 10000 nM	108
sgRNA knockout: sgHSF1, 10 nM	102
sgRNA knockout: sgHSF1, 100 nM	106
sgRNA knockout: sgHSF1, 1000 nM	108
sgRNA knockout: sgHSF1, 10000 nM	126
sgRNA knockout: sgHSF2, 10 nM	99.1
sgRNA knockout: sgHSF2, 100 nM	106
sgRNA knockout: sgHSF2, 1000 nM	118
sgRNA knockout: sgHSF2, 10000 nM	106
sgRNA knockout: sgKEAP1, 10 nM	95.1
sgRNA knockout: sgKEAP1, 100 nM	97.7
sgRNA knockout: sgKEAP1, 1000 nM	97
sgRNA knockout: sgKEAP1, 10000 nM	110
sgRNA knockout: sgNFE2L2, 10 nM	96.5
sgRNA knockout: sgNFE2L2, 100 nM	121
sgRNA knockout: sgNFE2L2, 1000 nM	105
sgRNA knockout: sgNFE2L2, 10000 nM	93.7
sgRNA knockout: sgSLC35F2, 10 nM	93.3
sgRNA knockout: sgSLC35F2, 100 nM	108
sgRNA knockout: sgSLC35F2, 1000 nM	104
sgRNA knockout: sgSLC35F2, 10000 nM	101
sgRNA knockout: sgXBP1, 10 nM	96.3
sgRNA knockout: sgXBP1, 100 nM	112
sgRNA knockout: sgXBP1, 1000 nM	109
sgRNA knockout: sgXBP1, 10000 nM	94.4

CCOC(=O)c1ccc(N2NC(=O)C(=Cc3ccc([N+](=O)[O-])o3)C2=O)cc1 [PYR41]
Conditions	relative cell number
sgRNA knockout: sgATF3, 10 nM	84.9
sgRNA knockout: sgATF3, 100 nM	92.26
sgRNA knockout: sgATF3, 1000 nM	106
sgRNA knockout: sgATF3, 10000 nM	92.4
sgRNA knockout: sgATF4, 10 nM	86.95
sgRNA knockout: sgATF4, 100 nM	85.2
sgRNA knockout: sgATF4, 1000 nM	106
sgRNA knockout: sgATF4, 10000 nM	86.2
sgRNA knockout: sgATF6, 10 nM	107
sgRNA knockout: sgATF6, 100 nM	92.8
sgRNA knockout: sgATF6, 1000 nM	121
sgRNA knockout: sgATF6, 10000 nM	86
sgRNA knockout: sgATG7, 10 nM	91.4
sgRNA knockout: sgATG7, 100 nM	87.3
sgRNA knockout: sgATG7, 1000 nM	110
sgRNA knockout: sgATG7, 10000 nM	87.1
sgRNA knockout: sgERN1, 10 nM	88.4
sgRNA knockout: sgERN1, 100 nM	82.4
sgRNA knockout: sgERN1, 1000 nM	97.2
sgRNA knockout: sgERN1, 10000 nM	83.04
sgRNA knockout: sgHSF1, 10 nM	92.3
sgRNA knockout: sgHSF1, 100 nM	85.4
sgRNA knockout: sgHSF1, 1000 nM	122
sgRNA knockout: sgHSF1, 10000 nM	97.7
sgRNA knockout: sgHSF2, 10 nM	85
sgRNA knockout: sgHSF2, 100 nM	98.7
sgRNA knockout: sgHSF2, 1000 nM	112.6
sgRNA knockout: sgHSF2, 10000 nM	103
sgRNA knockout: sgKEAP1, 10 nM	100
sgRNA knockout: sgKEAP1, 100 nM	94.3
sgRNA knockout: sgKEAP1, 1000 nM	115
sgRNA knockout: sgKEAP1, 10000 nM	86.1
sgRNA knockout: sgNFE2L2, 10 nM	82.2
sgRNA knockout: sgNFE2L2, 100 nM	83.6
sgRNA knockout: sgNFE2L2, 1000 nM	105
sgRNA knockout: sgNFE2L2, 10000 nM	86.1
sgRNA knockout: sgSLC35F2, 10 nM	90.8
sgRNA knockout: sgSLC35F2, 100 nM	84
sgRNA knockout: sgSLC35F2, 1000 nM	103
sgRNA knockout: sgSLC35F2, 10000 nM	87.3
sgRNA knockout: sgXBP1, 10 nM	89.2
sgRNA knockout: sgXBP1, 100 nM	80
sgRNA knockout: sgXBP1, 1000 nM	107
sgRNA knockout: sgXBP1, 10000 nM	87.8

O=C(CCc1ccc(O)cc1)c1c(O)cc(O)cc1O [Phloretin]
Conditions	relative cell number
sgRNA knockout: sgATF3, 10 nM	112
sgRNA knockout: sgATF3, 100 nM	112
sgRNA knockout: sgATF3, 1000 nM	112
sgRNA knockout: sgATF3, 10000 nM	109
sgRNA knockout: sgATF4, 10 nM	112
sgRNA knockout: sgATF4, 100 nM	103
sgRNA knockout: sgATF4, 1000 nM	105
sgRNA knockout: sgATF4, 10000 nM	106
sgRNA knockout: sgATF6, 10 nM	112
sgRNA knockout: sgATF6, 100 nM	118.9
sgRNA knockout: sgATF6, 1000 nM	129
sgRNA knockout: sgATF6, 10000 nM	110
sgRNA knockout: sgATG7, 10 nM	111
sgRNA knockout: sgATG7, 100 nM	105
sgRNA knockout: sgATG7, 1000 nM	106
sgRNA knockout: sgATG7, 10000 nM	104
sgRNA knockout: sgERN1, 10 nM	114
sgRNA knockout: sgERN1, 100 nM	113
sgRNA knockout: sgERN1, 1000 nM	111
sgRNA knockout: sgERN1, 10000 nM	126
sgRNA knockout: sgHSF1, 10 nM	110
sgRNA knockout: sgHSF1, 100 nM	131
sgRNA knockout: sgHSF1, 1000 nM	129
sgRNA knockout: sgHSF1, 10000 nM	122
sgRNA knockout: sgHSF2, 10 nM	123
sgRNA knockout: sgHSF2, 100 nM	106
sgRNA knockout: sgHSF2, 1000 nM	112.5
sgRNA knockout: sgHSF2, 10000 nM	124
sgRNA knockout: sgKEAP1, 10 nM	115
sgRNA knockout: sgKEAP1, 100 nM	133
sgRNA knockout: sgKEAP1, 1000 nM	124.7
sgRNA knockout: sgKEAP1, 10000 nM	121.1
sgRNA knockout: sgNFE2L2, 10 nM	117
sgRNA knockout: sgNFE2L2, 100 nM	97.6
sgRNA knockout: sgNFE2L2, 1000 nM	98.9
sgRNA knockout: sgNFE2L2, 10000 nM	108
sgRNA knockout: sgSLC35F2, 10 nM	111
sgRNA knockout: sgSLC35F2, 100 nM	108
sgRNA knockout: sgSLC35F2, 1000 nM	102
sgRNA knockout: sgSLC35F2, 10000 nM	117
sgRNA knockout: sgXBP1, 10 nM	107
sgRNA knockout: sgXBP1, 100 nM	114
sgRNA knockout: sgXBP1, 1000 nM	104
sgRNA knockout: sgXBP1, 10000 nM	114

Reference: the supplement of paper PMC7661543
